Experimental data as given in article PMC4501748.
No constants are given. Whether binding was seen depends on the method and setting. Binding seen in cells or lysates may run through a third protein. Some binding calls cover weakened binding; strength is not graded here.

By UniProt entry, the sequences of proteins in these tests, tags left out.
UniProt P58462: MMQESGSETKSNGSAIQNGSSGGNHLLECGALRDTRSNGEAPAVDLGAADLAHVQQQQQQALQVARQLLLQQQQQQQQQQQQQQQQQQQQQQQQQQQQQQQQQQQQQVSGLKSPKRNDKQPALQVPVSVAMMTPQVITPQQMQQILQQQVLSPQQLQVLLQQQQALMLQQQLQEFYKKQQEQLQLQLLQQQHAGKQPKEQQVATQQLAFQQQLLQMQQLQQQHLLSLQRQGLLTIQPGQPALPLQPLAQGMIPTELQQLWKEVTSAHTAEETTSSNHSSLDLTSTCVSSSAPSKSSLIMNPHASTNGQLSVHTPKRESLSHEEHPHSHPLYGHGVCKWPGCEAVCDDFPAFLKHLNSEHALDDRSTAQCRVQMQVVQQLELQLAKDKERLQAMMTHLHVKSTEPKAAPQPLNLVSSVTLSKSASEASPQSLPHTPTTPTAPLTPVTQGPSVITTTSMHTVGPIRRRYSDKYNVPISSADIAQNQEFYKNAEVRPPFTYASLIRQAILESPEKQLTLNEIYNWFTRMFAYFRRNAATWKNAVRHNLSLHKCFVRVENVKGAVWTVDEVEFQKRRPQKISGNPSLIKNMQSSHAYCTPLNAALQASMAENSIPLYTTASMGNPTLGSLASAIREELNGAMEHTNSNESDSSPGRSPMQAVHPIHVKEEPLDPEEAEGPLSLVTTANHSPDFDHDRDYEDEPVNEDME

Key:
[1] = biological target: T1, Thioredoxin-1 (Trx1) (mouse (endogenous in hair follicles)) (UniProt P10639); test: co-IP; protein lysates of mouse anagen hair follicles; endogenous proteins; immunoprecipitated by anti-Trx1, Foxp1 detected
T1 sequence: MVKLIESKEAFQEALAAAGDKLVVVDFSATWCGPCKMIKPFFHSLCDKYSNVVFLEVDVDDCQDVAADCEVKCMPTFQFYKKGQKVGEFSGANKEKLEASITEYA

[2] = biological target: T2, Trx1 (UniProt P10639); test: co-IP; HeLa cells transfected with Foxp1-His and Trx1; cell lysates immunoprecipitated by anti-Trx1 antibody and detected by anti-His antibody
T2 sequence: T1 sequence

Row | binding [1] | binding [2] | Substance
1 | binds |  | Foxp1 (from UniProt P58462 1-705)
2 |  | binds | Foxp1-His (from UniProt P58462 1-705)
